Laboratory results: publication PMC11723901
No constants are given. Whether binding was seen depends on the method and setting. Binding seen in cells or lysates may run through a third protein. These calls come from enrichment with a bait or labelling near it, and not all partners need be listed.

substrate: …OOF 2 fused to GFP (SHP2-GFP) (Arabidopsis) (UniProt P29385); test: affinity purification with mass spectrometry; GFP-trap magnetic beads (ChromoTek) on total protein from 1 g inflorescence of pSHP2:SHP2-GFP plants, with Col-0 wild type as control; lysis buffer 50 mM Tris/HCl pH 7.5, 150 mM NaCl, 10 mM MgCl2, 10% glycerol, 1 mM EDTA, 2 mM DTT, 1% Triton X-100, NP40; LC-MS/MS (DIA); three biological replicates

Binder	binding
Floral homeotic protein APETALA 3 (protein, UniProt P35632 1-232) MARGKIQIKRIENQTNRQVTYSKRRNGLFKKAHELTVLCDARVSIIMFSSSNKLHEYISPNTTTKEIVDLYQTISDVDVWATQYERMQETKRKLLETNRNLRTQIKQRLGECLDELDIQELRRLEDEMENTFKLVRERKFKSLGNQIETTKKKNKSQQDIQKNLIHELELRAEDPHYGLVDNGGDYDSVLGYQIEGSRAYALRFHQNHHHYYPNHGLHAPSASDIITFHLLE	binds
MADS-box protein AGL15 (protein, UniProt Q38847 1-268) MGRGKIEIKRIENANSRQVTFSKRRSGLLKKARELSVLCDAEVAVIVFSKSGKLFEYSSTGMKQTLSRYGNHQSSSASKAEEDCAEVDILKDQLSKLQEKHLQLQGKGLNPLTFKELQSLEQQLYHALITVRERKERLLTNQLEESRLKEQRAELENETLRRQVQELRSFLPSFTHYVPSYIKCFAIDPKNALINHDSKCSLQNTDSDTTLQLGLPGEAHDRRTNEGERESPSSDSVTTNTSSETAERGDQSSLANSPPEAKRQRFSV	binds

The remaining lines, values ahead:

binding	Binder
binds	MADS-box protein AGL18 (protein, UniProt Q9M2K8 1-256) MGRGRIEIKKIENINSRQVTFSKRRNGLIKKAKELSILCDAEVALIIFSSTGKIYDFSSVCMEQILSRYGYTTASTEHKQQREHQLLICASHGNEAVLRNDDSMKGELERLQLAIERLKGKELEGMSFPDLISLENQLNESLHSVKDQKTQILLNQIERSRIQEKKALEENQILRKQVEMLGRGSGPKVLNERPQDSSPEADPESSSSEEDENDNEEHHSDTSLQLGLSSTGYCTKRKKPKIELVCDNSGSQVASD
binds	Probable ubiquitin-like-specific protease 2B (EC 3.4.22.-) (enzyme, UniProt Q8L7S0 1-931) MKKNFEVFDFKEEDELAESAAGKLLEKFTNPSPCNSPVLQRQRIQSFCNEKRVEEEEMEGPSCAEPATAVESDDHQCEDDSTLVTEAKESRTILTFGLETTDHLEETDAEHVNQGLMLGLKTEDLAKETDIDHDNHGLMFGLNSEDDIEETDVDHRVESFSCQLGGNSFYAETSSYSQRQLNSPFSDSSSSEEQIDMMSAIDESLSDRSALSEASDSEDDEEDWMTEHCFNDEEKIDLSTAVIMTSEYVILKDMHCAASLVIFSCNGIKIKSFLANNEEVPFSCEFGVEDIVSIQYNWYQNVGLIILRIRVLLKDENCHEDMEELKIAVKEHNWPNKQQKINSLHVKYPAVWNTDLEDDVEVSGYNLNQQKRYFPSFDEPFEDVVYPKGDPDAVSICKRDVELLQPETFVNDTIIDFYINYLKNQIQTEEKHRFHFFNSFFFRKLADLDKDPSSIADGKAAFLRVRKWTRKVDMFGKDYIFVPVNYNLHWSLIVICHPGEVANRTDLDLDDSKKVPCILHMDSIKGSHAGLKNLVQTYLCEEWKERHKETSDDISSRFMNLRFVSLELPQQENSFDCGLFLLHYLELFLAEAPLNFSPFKIYNASNFLYLNWFPPAEASLKRTLIQKLIFELLENRSREVSNEQNQSCESPVAVNDDMGIEVLSERCSPLIDCNGDMTQTQDDQGIEMTLLERSSMRHIQAANDSGMVLRDLFDSGSNNTGSLLEQLQQPFEDPSSFYHLSNDSSAREQVDMETGEQFMCLNAGEGNFQCITETTSPRASNSFSSWNLGIPLVQKEDETDLLSETSNSSNDSIGIIEDNPIENTHEEEIDESPPRETVSLKSATVGSNTADHTTENEEPVSTHIELVVPSSQNDRDEEKPLEHDLEIGDKTSEDVGDDCDQKEPMEEEDEKRAAKRPRLSSPTGEAEEMEK
binds	Peptidyl-prolyl cis–trans isomerase FKBP53 (PPIase FKBP53) (protein, UniProt Q93ZG9 1-477) MGFWGLEVKPGKPQAYNPKNEQGKIHVTQATLGTGLSKEKSVIQCSIGDKAPIALCSLLPNKIECCPLNLEFDDDDEPVEFTVTGDRSIHLSGFLEYYQDDEDDYEHDEDDSDGIDVGESEEDDSCEYDSEEDEQLDEFEDFLDSNLERYRNAAAPKSGVIIEEIEDEEKPAKDNKAKQTKKKSQASEGENAKKQIVAIEGAHVPVLESEDEDEDGLPIPKGKSSEVENASGEKMVVDNDEQGSNKKRKAKAAEQDDGQESANKSKKKKNQKEKKKGENVLNEEAGQVQTGNVLKKQDISQISSNTKAQDGTANNAMSESSKTPDKSAEKKTKNKKKKKPSDEAAEISGTVEKQTPADSKSSQVRTYPNGLIVEELSMGKPNGKRADPGKTVSVRYIGKLQKNGKIFDSNIGKSPFKFRLGIGSVIKGWDVGVNGMRVGDKRKLTIPPSMGYGVKGAGGQIPPNSWLTFDVELINVQ
